Reference: article PMC10415138
Results are given in words; binding and its absence hold for the method and conditions named. Binding seen in cells or lysates may run through a third protein. Here binding means that the protein was enriched with, or labelled near, the bait; the list need not be complete. Where a sequence is shown, tags or fusion partners need not be part of it.

T1: TRMT112-WT-BirA*-HA (human) (UniProt Q9UI30)
T1 sequence: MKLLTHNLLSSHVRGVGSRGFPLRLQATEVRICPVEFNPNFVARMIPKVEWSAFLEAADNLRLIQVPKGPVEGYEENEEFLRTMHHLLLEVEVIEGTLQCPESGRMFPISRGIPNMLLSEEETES


Target: T1, TRMT112-WT-BirA*-HA (human)
Test: proximity labelling; BioID-MS in HEK293T cells: TRMT112-WT-BirA*-HA against the controls TRMT112-T5R-BirA*-HA, eGFP-BirA*-HA and BirA*-HA; 50 uM biotin for 24 h; streptavidin resin; nanoLC-MS/MS; five replicates

| binding | Binder |
| --- | --- |
| binds | TRMT11 (enzyme, UniProt Q7Z4G4 1-463) MALSCTLNRYLLLMAQEHLEFRLPEIKSLLLLFGGQFASSQETYGKSPFWILSIPSEDIARNLMKRTVCAKSIFELWGHGQSPEELYSSLKNYPVEKMVPFLHSDSTYKIKIHTFNKTLTQEEKIKRIDALEFLPFEGKVNLKKPQHVFSVLEDYGLDPNCIPENPHNIYFGRWIADGQRELIESYSVKKRHFIGNTSMDAGLSFIMANHGKVKENDIVFDPFVGTGGLLIACAHFGAYVYGTDIDYNTVHGLGKATRKNQKWRGPDENIRANLRQYGLEKYYLDVLVSDASKPSWRKGTYFDAIITDPPYGIRESTRRTGSQKEIPKGIEKWEKCPESHVPVSLSYHLSDMFLDLLNFAAETLVLGGRLVYWLPVYTPEYTEEMVPWHPCLELVSNCEQKLSSHTSRRLITMEKVKKFENRDQYSHLLSDHFLPYQGHNSFREKYFSGVTKRIAKEEKSTQE |
| binds | THUMPD3 (enzyme, UniProt Q9BV44 1-507) MCDIEEATNQLLDVNLHENQKSVQVTESDLGSESELLVTIGATVPTGFEQTAADEVREKLGSSCKISRDRGKIYFVISVESLAQVHCLRSVDNLFVVVQEFQDYQFKQTKEEVLKDFEDLAGKLPWSNPLKVWKINASFKKKKAKRKKINQNSSKEKINNGQEVKIDQRNVKKEFTSHALDSHILDYYENPAIKEDVSTLIGDDLASCKDETDESSKEETEPQVLKFRVTCNRAGEKHCFTSNEAARDFGGAVQDYFKWKADMTNFDVEVLLNIHDNEVIVGIALTEESLHRRNITHFGPTTLRSTLAYGMLRLCDPLPYDIIVDPMCGTGAIPIEGATEWSDCFHIAGDNNPLAVNRAANNIASLLTKSQIKEGKPSWGLPIDAVQWDICNLPLRTGSVDIIVTDLPFGKRMGSKKRNWNLYPACLREMSRVCTPTTGRAVLLTQDTKCFTKALSGMRHVWRKVDTVWVNVGGLRAAVYVLIRTPQAFVHPSEQDGERGTLWQCKE |
